Paper PMC13016608
No constants are given. Whether binding was seen depends on the method and setting. A result given as binding can be weak or reduced; the word gives no strength.

Tests used:
[1] = molecular target: T1, SPO-11 (C. elegans) (UniProt Q22236); assay: two-hybrid; GAL4 activating domain (pGAD-C1) and binding domain (pGBD-C1) fusions co-transformed into yeast PJ69-4a; growth on SC-LEU-TRP-HIS (weak interactions) and SC-LEU-TRP-ADE (strong interactions), 30°C, 72 hr
T1 sequence: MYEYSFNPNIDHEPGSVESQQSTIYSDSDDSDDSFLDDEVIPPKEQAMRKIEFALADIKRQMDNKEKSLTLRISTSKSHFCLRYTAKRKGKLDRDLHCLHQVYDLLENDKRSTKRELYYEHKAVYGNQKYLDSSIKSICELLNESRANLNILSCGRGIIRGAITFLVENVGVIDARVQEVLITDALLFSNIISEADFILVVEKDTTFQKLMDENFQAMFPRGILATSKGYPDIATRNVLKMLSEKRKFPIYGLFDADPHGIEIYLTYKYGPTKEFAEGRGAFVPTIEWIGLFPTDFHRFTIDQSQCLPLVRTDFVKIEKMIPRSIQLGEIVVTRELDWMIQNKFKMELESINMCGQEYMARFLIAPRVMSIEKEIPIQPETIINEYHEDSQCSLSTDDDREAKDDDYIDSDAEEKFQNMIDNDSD

[2] = molecular target: XND-1 (C. elegans) (UniProt O45134); assay: as above

Substance | binding [1] | binding [2]
DSB-1 (1–114) (C. elegans) (domain or fragment) | binds | –
DSB-1 (1–145) (C. elegans) (domain or fragment) | binds | –
DSB-1 (C. elegans) | binds | –
DSB-2 (from UniProt D2Y8W2) | no binding | –
DSB-3 (C. elegans) | no binding | –
HIM-5 (C. elegans) | no binding | –
HIM-17 (from UniProt Q22360) | no binding | binds
REC-1 (C. elegans) | no binding | –
